According to the supplement of paper PMC10849652:
This is one part of the list.

By UniProt entry, the sequences of proteins in these tests, tags left out. Where a name states a change or a piece, a line headed by the entry shows the natural chain unless it says otherwise.
UniProt Q96MV1: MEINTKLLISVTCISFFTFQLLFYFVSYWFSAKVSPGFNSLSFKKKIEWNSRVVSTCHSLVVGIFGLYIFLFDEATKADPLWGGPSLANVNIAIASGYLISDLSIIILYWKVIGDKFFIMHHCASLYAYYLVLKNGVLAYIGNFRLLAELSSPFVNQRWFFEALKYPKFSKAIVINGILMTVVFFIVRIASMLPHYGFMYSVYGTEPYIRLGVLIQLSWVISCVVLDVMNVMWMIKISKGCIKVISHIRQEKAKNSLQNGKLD
UniProt Q99595: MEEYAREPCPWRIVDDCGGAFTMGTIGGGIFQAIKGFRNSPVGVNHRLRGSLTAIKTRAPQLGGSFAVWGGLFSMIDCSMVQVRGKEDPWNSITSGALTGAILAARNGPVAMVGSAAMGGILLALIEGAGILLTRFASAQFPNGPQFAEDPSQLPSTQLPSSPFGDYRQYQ
UniProt P07996: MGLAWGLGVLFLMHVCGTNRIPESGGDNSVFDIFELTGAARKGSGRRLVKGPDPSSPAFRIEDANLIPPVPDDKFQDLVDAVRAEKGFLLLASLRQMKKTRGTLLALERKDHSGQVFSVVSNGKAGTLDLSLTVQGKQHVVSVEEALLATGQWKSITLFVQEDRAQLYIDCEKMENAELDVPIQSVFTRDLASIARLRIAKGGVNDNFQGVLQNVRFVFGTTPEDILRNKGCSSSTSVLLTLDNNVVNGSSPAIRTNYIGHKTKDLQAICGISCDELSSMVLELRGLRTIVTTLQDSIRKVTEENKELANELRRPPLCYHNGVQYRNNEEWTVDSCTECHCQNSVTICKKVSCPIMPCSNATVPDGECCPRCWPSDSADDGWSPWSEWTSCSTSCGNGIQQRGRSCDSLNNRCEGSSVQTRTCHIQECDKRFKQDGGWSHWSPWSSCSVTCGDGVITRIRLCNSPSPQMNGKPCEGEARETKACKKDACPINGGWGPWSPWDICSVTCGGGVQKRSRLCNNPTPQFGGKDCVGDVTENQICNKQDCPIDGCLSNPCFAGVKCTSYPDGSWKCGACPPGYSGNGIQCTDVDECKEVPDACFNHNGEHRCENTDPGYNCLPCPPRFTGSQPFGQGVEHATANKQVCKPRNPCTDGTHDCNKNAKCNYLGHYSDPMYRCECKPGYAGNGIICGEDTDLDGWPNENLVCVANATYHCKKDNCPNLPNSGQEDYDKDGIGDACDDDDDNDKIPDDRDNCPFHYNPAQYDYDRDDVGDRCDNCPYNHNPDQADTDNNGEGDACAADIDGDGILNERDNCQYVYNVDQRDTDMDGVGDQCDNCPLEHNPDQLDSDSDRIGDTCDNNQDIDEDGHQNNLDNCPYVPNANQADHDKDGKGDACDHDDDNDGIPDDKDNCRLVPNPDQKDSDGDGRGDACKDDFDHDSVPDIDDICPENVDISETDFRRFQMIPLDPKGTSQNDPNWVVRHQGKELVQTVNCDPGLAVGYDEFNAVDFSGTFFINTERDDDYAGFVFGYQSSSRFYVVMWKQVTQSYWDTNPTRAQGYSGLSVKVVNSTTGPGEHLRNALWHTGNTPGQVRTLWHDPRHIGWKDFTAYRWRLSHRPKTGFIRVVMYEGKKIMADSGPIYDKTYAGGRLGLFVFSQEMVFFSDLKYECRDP
UniProt Q8WUA7: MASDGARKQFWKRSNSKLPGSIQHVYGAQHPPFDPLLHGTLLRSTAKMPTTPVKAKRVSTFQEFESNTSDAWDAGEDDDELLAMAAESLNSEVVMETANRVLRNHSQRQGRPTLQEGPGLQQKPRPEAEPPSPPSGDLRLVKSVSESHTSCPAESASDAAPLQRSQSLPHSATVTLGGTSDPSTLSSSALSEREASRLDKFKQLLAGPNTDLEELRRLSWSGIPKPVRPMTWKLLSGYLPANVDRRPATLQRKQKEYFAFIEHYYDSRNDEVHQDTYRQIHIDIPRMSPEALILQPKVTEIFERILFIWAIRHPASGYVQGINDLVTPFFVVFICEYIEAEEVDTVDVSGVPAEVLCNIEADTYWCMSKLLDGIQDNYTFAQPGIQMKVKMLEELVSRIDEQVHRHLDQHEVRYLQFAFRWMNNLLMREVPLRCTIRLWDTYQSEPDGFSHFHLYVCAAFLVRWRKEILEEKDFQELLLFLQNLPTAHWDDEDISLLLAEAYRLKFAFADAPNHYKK
UniProt O95551: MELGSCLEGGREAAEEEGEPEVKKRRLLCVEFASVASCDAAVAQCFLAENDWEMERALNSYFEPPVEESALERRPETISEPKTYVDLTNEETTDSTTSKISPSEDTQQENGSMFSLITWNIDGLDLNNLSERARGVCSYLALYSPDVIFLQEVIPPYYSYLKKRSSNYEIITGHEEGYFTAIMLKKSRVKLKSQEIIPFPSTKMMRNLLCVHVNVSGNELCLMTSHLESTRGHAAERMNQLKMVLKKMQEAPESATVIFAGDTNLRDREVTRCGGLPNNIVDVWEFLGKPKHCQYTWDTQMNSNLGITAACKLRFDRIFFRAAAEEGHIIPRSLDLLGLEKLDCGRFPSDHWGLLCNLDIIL
UniProt Q9Y584: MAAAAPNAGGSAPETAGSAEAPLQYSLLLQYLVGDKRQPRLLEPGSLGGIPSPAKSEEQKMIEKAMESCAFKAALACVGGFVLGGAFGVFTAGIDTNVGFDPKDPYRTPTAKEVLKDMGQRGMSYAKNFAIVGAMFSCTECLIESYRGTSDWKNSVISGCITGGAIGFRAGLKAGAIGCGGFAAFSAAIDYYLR
UniProt P29401: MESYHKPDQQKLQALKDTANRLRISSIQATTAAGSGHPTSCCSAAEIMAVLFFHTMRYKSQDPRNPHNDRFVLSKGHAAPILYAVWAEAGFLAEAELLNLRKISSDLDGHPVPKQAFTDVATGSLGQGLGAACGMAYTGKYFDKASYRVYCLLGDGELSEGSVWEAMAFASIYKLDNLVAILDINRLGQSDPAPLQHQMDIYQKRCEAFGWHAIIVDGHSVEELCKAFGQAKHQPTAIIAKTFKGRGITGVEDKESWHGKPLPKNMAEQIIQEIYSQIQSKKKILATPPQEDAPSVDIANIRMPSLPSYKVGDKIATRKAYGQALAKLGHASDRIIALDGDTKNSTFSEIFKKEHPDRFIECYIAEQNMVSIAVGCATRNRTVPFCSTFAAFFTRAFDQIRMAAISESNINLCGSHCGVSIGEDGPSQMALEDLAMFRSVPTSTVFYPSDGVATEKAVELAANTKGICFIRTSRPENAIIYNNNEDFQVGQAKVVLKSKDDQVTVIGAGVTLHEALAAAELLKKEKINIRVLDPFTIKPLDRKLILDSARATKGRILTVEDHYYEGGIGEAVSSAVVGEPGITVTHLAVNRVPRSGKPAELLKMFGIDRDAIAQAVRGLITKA
UniProt Q9BZK7: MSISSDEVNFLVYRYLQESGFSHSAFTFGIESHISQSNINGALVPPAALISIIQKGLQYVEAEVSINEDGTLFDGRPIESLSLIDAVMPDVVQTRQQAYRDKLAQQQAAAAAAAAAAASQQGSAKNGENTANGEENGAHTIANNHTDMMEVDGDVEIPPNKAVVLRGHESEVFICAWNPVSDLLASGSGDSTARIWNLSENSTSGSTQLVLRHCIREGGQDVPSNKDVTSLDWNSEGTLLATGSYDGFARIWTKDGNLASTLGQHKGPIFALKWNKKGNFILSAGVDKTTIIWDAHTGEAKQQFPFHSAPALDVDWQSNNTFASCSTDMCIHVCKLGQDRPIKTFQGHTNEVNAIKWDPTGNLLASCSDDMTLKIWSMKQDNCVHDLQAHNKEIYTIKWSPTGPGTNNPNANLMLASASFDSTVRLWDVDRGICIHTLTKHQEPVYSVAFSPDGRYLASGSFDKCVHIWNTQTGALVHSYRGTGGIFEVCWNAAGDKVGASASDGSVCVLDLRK
UniProt P10646, whole entry, looked up: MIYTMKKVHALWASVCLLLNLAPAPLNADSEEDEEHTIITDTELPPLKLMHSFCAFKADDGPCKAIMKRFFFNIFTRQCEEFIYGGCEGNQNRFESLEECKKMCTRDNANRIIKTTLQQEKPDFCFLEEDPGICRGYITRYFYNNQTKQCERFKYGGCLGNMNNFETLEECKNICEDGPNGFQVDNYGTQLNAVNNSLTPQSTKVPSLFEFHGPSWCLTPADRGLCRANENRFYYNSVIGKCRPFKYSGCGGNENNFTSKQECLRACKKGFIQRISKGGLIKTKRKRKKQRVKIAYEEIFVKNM
UniProt Q8IWB9: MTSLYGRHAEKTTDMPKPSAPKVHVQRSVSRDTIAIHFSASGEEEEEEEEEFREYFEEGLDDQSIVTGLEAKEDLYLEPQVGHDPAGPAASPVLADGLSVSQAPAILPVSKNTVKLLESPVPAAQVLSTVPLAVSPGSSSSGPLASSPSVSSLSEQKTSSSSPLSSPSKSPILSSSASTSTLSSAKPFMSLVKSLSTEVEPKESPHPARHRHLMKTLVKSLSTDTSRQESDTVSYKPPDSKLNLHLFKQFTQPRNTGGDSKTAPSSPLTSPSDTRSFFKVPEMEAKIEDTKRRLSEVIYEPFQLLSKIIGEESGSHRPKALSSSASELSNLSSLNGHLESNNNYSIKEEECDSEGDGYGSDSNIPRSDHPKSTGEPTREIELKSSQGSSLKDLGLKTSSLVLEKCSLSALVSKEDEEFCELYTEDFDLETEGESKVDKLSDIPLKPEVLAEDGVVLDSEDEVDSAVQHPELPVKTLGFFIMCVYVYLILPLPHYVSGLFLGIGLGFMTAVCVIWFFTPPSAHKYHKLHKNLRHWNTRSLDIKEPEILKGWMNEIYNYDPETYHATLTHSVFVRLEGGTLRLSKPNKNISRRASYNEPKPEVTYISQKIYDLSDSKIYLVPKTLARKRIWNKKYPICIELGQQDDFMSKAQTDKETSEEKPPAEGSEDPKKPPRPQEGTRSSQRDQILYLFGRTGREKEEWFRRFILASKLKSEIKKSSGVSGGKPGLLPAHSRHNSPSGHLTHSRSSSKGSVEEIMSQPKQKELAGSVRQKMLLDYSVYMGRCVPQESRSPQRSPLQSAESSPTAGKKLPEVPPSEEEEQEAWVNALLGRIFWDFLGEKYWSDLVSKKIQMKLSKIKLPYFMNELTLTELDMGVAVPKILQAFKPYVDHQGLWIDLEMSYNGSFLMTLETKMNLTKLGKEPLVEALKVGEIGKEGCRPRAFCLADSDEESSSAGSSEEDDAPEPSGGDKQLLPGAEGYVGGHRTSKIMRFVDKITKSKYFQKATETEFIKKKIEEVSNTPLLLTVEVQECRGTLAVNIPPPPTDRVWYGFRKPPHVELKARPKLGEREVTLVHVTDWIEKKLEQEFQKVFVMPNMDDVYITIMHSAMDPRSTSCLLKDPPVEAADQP
UniProt Q9Y4C2: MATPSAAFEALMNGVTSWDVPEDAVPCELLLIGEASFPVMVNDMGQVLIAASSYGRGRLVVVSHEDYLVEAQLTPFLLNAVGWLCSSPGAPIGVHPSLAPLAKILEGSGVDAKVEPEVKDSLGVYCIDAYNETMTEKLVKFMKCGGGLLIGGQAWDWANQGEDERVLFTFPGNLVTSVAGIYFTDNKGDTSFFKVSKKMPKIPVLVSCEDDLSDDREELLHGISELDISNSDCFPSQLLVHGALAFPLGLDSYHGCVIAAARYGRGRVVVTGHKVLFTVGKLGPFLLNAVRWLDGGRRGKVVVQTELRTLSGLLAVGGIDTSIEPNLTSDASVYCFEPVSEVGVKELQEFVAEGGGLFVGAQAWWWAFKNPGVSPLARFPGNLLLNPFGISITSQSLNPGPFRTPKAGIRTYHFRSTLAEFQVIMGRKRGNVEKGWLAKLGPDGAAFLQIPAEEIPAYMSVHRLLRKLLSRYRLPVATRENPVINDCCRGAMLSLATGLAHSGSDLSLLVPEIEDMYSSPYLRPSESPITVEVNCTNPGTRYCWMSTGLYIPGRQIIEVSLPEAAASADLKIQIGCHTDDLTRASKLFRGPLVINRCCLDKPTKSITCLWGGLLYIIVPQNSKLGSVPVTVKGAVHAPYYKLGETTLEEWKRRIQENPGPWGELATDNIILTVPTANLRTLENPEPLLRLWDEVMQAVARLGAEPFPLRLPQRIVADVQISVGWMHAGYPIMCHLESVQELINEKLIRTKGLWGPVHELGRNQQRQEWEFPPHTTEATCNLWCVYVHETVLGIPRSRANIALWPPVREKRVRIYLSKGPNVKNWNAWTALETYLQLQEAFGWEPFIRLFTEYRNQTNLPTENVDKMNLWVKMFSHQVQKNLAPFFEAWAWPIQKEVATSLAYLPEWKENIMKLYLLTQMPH
UniProt O60220: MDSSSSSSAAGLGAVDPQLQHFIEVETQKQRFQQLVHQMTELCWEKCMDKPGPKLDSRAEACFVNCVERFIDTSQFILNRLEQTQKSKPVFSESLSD
UniProt Q8WUY1: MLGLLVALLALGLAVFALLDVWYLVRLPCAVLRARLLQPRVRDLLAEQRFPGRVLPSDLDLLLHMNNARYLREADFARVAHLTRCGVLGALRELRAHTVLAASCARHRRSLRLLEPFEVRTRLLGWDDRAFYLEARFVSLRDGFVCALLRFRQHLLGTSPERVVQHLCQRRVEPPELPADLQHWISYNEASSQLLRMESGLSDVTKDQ
UniProt Q9Y5J7: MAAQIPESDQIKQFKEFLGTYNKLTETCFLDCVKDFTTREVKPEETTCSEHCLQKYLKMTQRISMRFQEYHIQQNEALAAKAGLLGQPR

Assays:
Assay in all cases: log2 fold change, soluble protein after heating vs DMSO (PISA); higher = thermal stabilisation; K562 cells, 10 uM, 30 min; active = over 0.2 and 3.5 SD of the protein, either way, in both replicates (recomputed)
saracatinib = compound: CN1CCN(CCOc2cc(OC3CCOCC3)c3c(Nc4c(Cl)ccc5c4OCO5)ncnc3c2)CC1 [saracatinib]
How it was run: (§1)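 Thermal stability values are relative to control samples and come from duplicates. They are expressed as log2 fold changes. For measurement, K562 cells (2×10^6 cells/mL) received 10 μM compound for 30 min, and aliquots were heated for 3 min over 48°C-58°C, pooled, and extracted at 4°C in PBS with 0.5% NP-40. Soluble protein, the supernatant after 21,000xg for 90 min, was quantified by TMTpro 16plex LC-MS/MS with equalised channel sums.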

sotrastaurin = compound: CN1CCN(c2nc(C3=C(c4c[nH]c5ccccc45)C(=O)NC3=O)c3ccccc3n2)CC1 [sotrastaurin]
How it was run: as §1

alvocidib = compound: CN1CC[C@H](c2c(O)cc(O)c3c(=O)cc(-c4ccccc4Cl)oc23)[C@H](O)C1 [alvocidib]
How it was run: as §1

Tubastatin A = compound: CN1CCc2c(c3ccccc3n2Cc2ccc(C(=O)NO)cc2)C1 [Tubastatin A]
How it was run: as §1

[1] = compound: CNC(=O)C1=CC=CC=C1NC2=NC(=NC=C2Cl)NC3=C(C=C(C=C3)N4CCOCC4)OC
How it was run: as §1

defactinib = compound: CNC(=O)c1ccc(Nc2ncc(C(F)(F)F)c(NCc3nccnc3N(C)S(C)(=O)=O)n2)cc1 [defactinib]
How it was run: as §1

rucaparib = compound: CNCc1ccc(-c2[nH]c3cc(F)cc4c3c2CCNC4=O)cc1 [rucaparib]
How it was run: as §1

[2] = compound: CNc1nc(-c2ccc3c(N)n[nH]c3c2)cc(N2C[C@@H](C(=O)NC3CCCCC3)CC[C@H]2C)n1
How it was run: as §1

encorafenib = compound: COC(=O)N[C@@H](C)CNc1nccc(-c2cn(C(C)C)nc2-c2cc(Cl)cc(NS(C)(=O)=O)c2F)n1 [encorafenib]
How it was run: as §1

[3] = compound: COC(=O)[C@H](CCSC)NC(=O)C1=C(C=C(C=C1)NC[C@H](CS)N)C2=CC=CC=C2
How it was run: as §1

Measured: log2 fold change

THUMPD1 (UniProt Q9NXG2)
inactive: saracatinib 0.003 | sotrastaurin -0.006 | alvocidib -0.017 | Tubastatin A -0.029 | [1] 0 | defactinib -0.022 | rucaparib -0.062 | [2] -0.064 | encorafenib 0.007 | [3] 0.022

TET1 (UniProt Q8NFU7)
inactive: saracatinib -0.19 | sotrastaurin -0.033 | alvocidib 0.043 | Tubastatin A 0.308 | [1] -0.257 | defactinib -0.036 | rucaparib -0.01 | [2] -0.054 | encorafenib -0.116 | [3] -0.068

THOC7 (UniProt Q6I9Y2)
inactive: saracatinib 0.01 | sotrastaurin -0.008 | alvocidib -0.061 | Tubastatin A -0.017 | [1] 0.022 | defactinib -0.076 | rucaparib 0.045 | [2] -0.06 | encorafenib 0.064 | [3] 0.038

TLCD4 (UniProt Q96MV1)
inactive: saracatinib 0.114 | sotrastaurin -0.068 | alvocidib 0.036 | Tubastatin A -0.005 | [1] 0.045 | defactinib 0.011 | rucaparib -0.037 | [2] -0.054 | encorafenib 0.012 | [3] 0.019

TIMM50 isoform 2 (UniProt Q3ZCQ8)
inactive: saracatinib -0.028 | sotrastaurin 0.075 | alvocidib -0.042 | Tubastatin A 0.033 | [1] -0.016 | defactinib -0.048 | rucaparib 0.008 | [2] 0.039 | encorafenib -0.013 | [3] -0.027

2 records picked at random from the list so far:
TET1 (UniProt Q8NFU7)
inactive: saracatinib -0.19 | sotrastaurin -0.033 | alvocidib 0.043 | Tubastatin A 0.308 | [1] -0.257 | defactinib -0.036 | rucaparib -0.01 | [2] -0.054 | encorafenib -0.116 | [3] -0.068

TIMM50 isoform 2 (UniProt Q3ZCQ8)
inactive: saracatinib -0.028 | sotrastaurin 0.075 | alvocidib -0.042 | Tubastatin A 0.033 | [1] -0.016 | defactinib -0.048 | rucaparib 0.008 | [2] 0.039 | encorafenib -0.013 | [3] -0.027

Additional records follow:

THEM4 (UniProt Q5T1C6)
inactive: saracatinib 0.066 | sotrastaurin 0.05 | alvocidib 0.012 | Tubastatin A -0.028 | [1] 0.065 | defactinib -0.025 | rucaparib 0.011 | [2] -0.069 | encorafenib -0.016 | [3] 0.075

TBPL1 (UniProt P62380)
inactive: saracatinib -0.024 | sotrastaurin -0.051 | alvocidib -0.12 | Tubastatin A 0.013 | [1] 0.128 | defactinib -0.076 | rucaparib 0.067 | [2] 0.025 | encorafenib 0.041 | [3] -0.007

THG1L (UniProt Q9NWX6)
inactive: saracatinib 0.016 | sotrastaurin 0.027 | alvocidib -0.007 | Tubastatin A 0.01 | [1] -0.046 | defactinib -0.016 | rucaparib -0.088 | [2] -0.011 | encorafenib 0.015 | [3] 0.024

TBCE (UniProt Q15813)
inactive: saracatinib -0.066 | sotrastaurin -0.265 | alvocidib 0.02 | Tubastatin A 0.129 | [1] -0.012 | defactinib -0.035 | rucaparib 0.331 | [2] 0.057 | encorafenib 0.131 | [3] -0.116

TBCC (UniProt Q15814)
inactive: saracatinib 0.003 | sotrastaurin -0.008 | alvocidib -0.098 | Tubastatin A 0.007 | [1] -0.004 | defactinib -0.063 | rucaparib -0.045 | [2] -0.048 | encorafenib -0.001 | [3] 0.017

TIMM17A (UniProt Q99595)
inactive: saracatinib 0.047 | sotrastaurin 0.012 | alvocidib 0.007 | Tubastatin A 0 | [1] -0.019 | defactinib 0.002 | rucaparib -0.038 | [2] -0.037 | encorafenib 0.006 | [3] 0.062

THBS1 (UniProt P07996)
inactive: saracatinib 0.127 | sotrastaurin 0.185 | alvocidib 0.066 | Tubastatin A -0.068 | [1] -0.039 | defactinib 0.03 | rucaparib -0.193 | [2] -0.076 | encorafenib -0.04 | [3] 0.1

TBC1D22A (UniProt Q8WUA7)
inactive: saracatinib 0.006 | sotrastaurin -0.025 | alvocidib -0.016 | Tubastatin A 0.029 | [1] -0.044 | defactinib -0.046 | rucaparib -0.046 | [2] -0.06 | encorafenib -0.004 | [3] -0.053

TIPIN (UniProt Q9BVW5)
inactive: saracatinib 0.079 | sotrastaurin -0.031 | alvocidib 0.028 | Tubastatin A 0.042 | [1] 0.011 | defactinib -0.047 | rucaparib -0.034 | [2] -0.034 | encorafenib 0.064 | [3] 0.056

TFCP2 (UniProt Q12800)
inactive: saracatinib -0.387 | sotrastaurin 0.105 | alvocidib -0.107 | [1] -0.057 | rucaparib 0.232 | [2] 0.087 | encorafenib 0.09

TDP2 isoform 2 (UniProt O95551)
inactive: saracatinib -0.01 | sotrastaurin 0.027 | alvocidib -0.093 | Tubastatin A 0.04 | [1] 0.018 | defactinib -0.131 | rucaparib -0.13 | [2] 0.032 | encorafenib 0.026 | [3] 0.03

TIMM22 (UniProt Q9Y584)
inactive: saracatinib 0.254 | sotrastaurin -0.038 | alvocidib -0.157 | Tubastatin A -0.021 | [1] -0.042 | defactinib -0.089 | rucaparib 0.182 | [2] 0.085 | encorafenib -0.075 | [3] -0.14

TKT isoform 2 (UniProt P29401)
inactive: saracatinib 0.043 | sotrastaurin 0.027 | alvocidib -0.02 | Tubastatin A -0.019 | [1] -0.027 | defactinib 0.013 | rucaparib -0.079 | [2] -0.002 | encorafenib -0.027 | [3] 0.014

TBL1XR1 (UniProt Q9BZK7)
inactive: saracatinib 0.029 | sotrastaurin -0.006 | alvocidib -0.024 | Tubastatin A -0.01 | [1] -0.075 | defactinib 0.006 | rucaparib -0.023 | [2] -0.066 | encorafenib 0.028 | [3] -0.002

TFPI (UniProt P10646)
inactive: saracatinib -0.049 | sotrastaurin 0.135 | alvocidib 0.082 | Tubastatin A 0.062 | [1] 0 | defactinib -0.021 | [2] -0.024 | [3] 0.045

TIMMDC1 (UniProt Q9NPL8)
inactive: saracatinib 0.068 | sotrastaurin -0.014 | alvocidib 0.055 | Tubastatin A -0.075 | [1] 0.013 | defactinib 0.018 | rucaparib -0.036 | [2] -0.06 | encorafenib -0.016 | [3] 0.032

TEX2 isoform 2 (UniProt Q8IWB9)
inactive: saracatinib 0.093 | sotrastaurin 0.018 | alvocidib -0.133 | Tubastatin A 0.075 | [1] -0.072 | defactinib -0.108 | [2] -0.044 | [3] 0.02

TCAF1 (UniProt Q9Y4C2)
inactive: saracatinib -0.092 | sotrastaurin -0.074 | alvocidib -0.01 | Tubastatin A 0.024 | [1] -0.062 | defactinib -0.048 | rucaparib 0.083 | [2] 0.026 | encorafenib 0.06 | [3] -0.028

TICAM2 isoform 2 (UniProt Q86XR7)
inactive: saracatinib 0.024 | sotrastaurin 0.015 | alvocidib 0.022 | Tubastatin A -0.013 | [1] -0.049 | defactinib 0.017 | rucaparib 0.01 | [2] -0.033 | encorafenib 0.007 | [3] -0.014

TIMM8A (UniProt O60220)
inactive: saracatinib -0.105 | sotrastaurin 0.022 | alvocidib -0.053 | Tubastatin A 0.053 | [1] 0.02 | defactinib -0.096 | rucaparib 0.069 | [2] -0.093 | encorafenib -0.095 | [3] 0.096

THEM6 (UniProt Q8WUY1)
inactive: saracatinib 0.013 | sotrastaurin 0.041 | alvocidib -0.017 | Tubastatin A -0.074 | [1] -0.001 | defactinib -0.016 | rucaparib 0.013 | [2] 0.002 | encorafenib -0.043 | [3] 0.018

TIMM9 (UniProt Q9Y5J7)
inactive: saracatinib -0.027 | sotrastaurin -0.006 | alvocidib -0.067 | Tubastatin A -0.002 | [1] -0.004 | defactinib 0 | rucaparib -0.026 | [2] 0.003 | encorafenib -0.072 | [3] -0.036

TCF3 (UniProt P15923)
inactive: saracatinib 0.014 | sotrastaurin -0.007 | alvocidib -0.005 | Tubastatin A 0.014 | [1] -0.04 | defactinib -0.093 | rucaparib 0.078 | [2] -0.046 | encorafenib -0.04 | [3] -0.001
